Laboratory results: PubChem BioAssay AID1224828 (NIAID, 2016)
Here is a random part of about 17,000 reagents. In the full data, 762 (4.5%) were called active. 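Active calls include both raised and lowered p65 entry, mostly lowered; wells with fewer than 50 cells lack a z-score.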 Raw values are not corrected between plates. Unmarked entries are inactive.

Purpose: 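Find genes required for NF-kappaB p65 moving into the nucleus after LPS in mouse macrophages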 (primary screen)
Cells: mouse RAW264.7 G9 macrophage reporter cells (GFP-p65, Tnf promoter-mCherry)
Knock-down reagent: siRNA pool against mouse genes, 100 nM
Timing: 2 days siRNA transfection, then 40 min LPS before fixation
Treatment: LPS (Salmonella minnesota R595) at 10 ng/ml
Measurement: 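Microscopy ratio of nuclear to perinuclear-ring GFP-p65 signal, scaled to the plate median; gene score is the average of two replicate robust z-scores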
Direction: p65 translocation robust z-score: higher = more nuclear NF-kappaB p65 after LPS than the plate median; nuclear/cytoplasmic p65 ratio: higher = more nuclear NF-kappaB p65
Hit rule: 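Called active when z exceeds 3.3 or falls under -1.56 (median of Tlr4 controls), giving activity score of at least 50; no calls for control wells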
Meaning of the calls: active = hit (p65 shift raised or lowered); inactive = no clear change

no.	gene	p65 translocation robust z-score	nuclear/cytoplasmic p65 ratio, rep 1	nuclear/cytoplasmic p65 ratio, rep 2	low cell count flag
1	Wdr3	-0.06	1.55	1.56	enough cells to score
2	Clcn2	-0.51	1.35	1.36	enough cells to score
3	Ccdc71	-0.84	1.37	1.26	enough cells to score
4	Scmh1	2.8	1.5	2.41	enough cells to score
5	Ear3		1.46	1.33	fewer than 50 cells per well; well left out of scoring
6	Ifrd1	0.07	1.41	1.41	enough cells to score
7	Cntn1	0.67	1.69	1.34	enough cells to score
8	Scart2	-0.5	1.3	1.3	enough cells to score
9	Kif20a	-1.23	1.3	1.23	enough cells to score
10	Rhpn1		1.26	1.22	fewer than 50 cells per well; well left out of scoring
11	Vmn1r225	-1.85 (active)	1.15	1.1	enough cells to score
12	Smim10l2a	0.41	1.39	1.55	enough cells to score
13	Frs2	-0.03	1.43	1.37	enough cells to score
14	Oosp1	2.11	1.93	1.31	enough cells to score
15	Kalrn		1.16	1.07	fewer than 50 cells per well; well left out of scoring
16	Pde4c	-1.07	1.31	1.27	enough cells to score
17	Pphln1-ps1	-0.56	1.22	1.3	enough cells to score
18	Hsd3b6		1.6	1.73	fewer than 50 cells per well; well left out of scoring
19	Slc1a5		1.41	1.31	fewer than 50 cells per well; well left out of scoring
20	Gtf2h3	0.82	1.57	1.78	enough cells to score
21	Pwp1	-0.19	1.32	1.3	enough cells to score
22	Polrmt		1.44	1.27	fewer than 50 cells per well; well left out of scoring
23	Eif3f	-0.49	1.45	1.26	enough cells to score
24	Cilk1	0.62	1.72	1.45	enough cells to score
25	Wwp2	-0.86	1.48	1.49	enough cells to score
26	Hmga2	1.02	1.6	1.48	enough cells to score
27	A730008H23Rik	0.43	1.78	1.57	enough cells to score
28	Tmigd1	0.72	1.42	1.4	enough cells to score

In a second layout: results already given
{"gene": "Kif20a", "p65 translocation robust z-score": -1.23, "nuclear/cytoplasmic p65 ratio, rep 1": 1.3, "nuclear/cytoplasmic p65 ratio, rep 2": 1.23, "low cell count flag": "enough cells to score"}
{"gene": "Rhpn1", "nuclear/cytoplasmic p65 ratio, rep 1": 1.26, "nuclear/cytoplasmic p65 ratio, rep 2": 1.22, "low cell count flag": "fewer than 50 cells per well; well left out of scoring"}
{"gene": "Vmn1r225", "p65 translocation robust z-score": "-1.85 (active)", "nuclear/cytoplasmic p65 ratio, rep 1": 1.15, "nuclear/cytoplasmic p65 ratio, rep 2": 1.1, "low cell count flag": "enough cells to score"}
{"gene": "Smim10l2a", "p65 translocation robust z-score": 0.41, "nuclear/cytoplasmic p65 ratio, rep 1": 1.39, "nuclear/cytoplasmic p65 ratio, rep 2": 1.55, "low cell count flag": "enough cells to score"}
{"gene": "Frs2", "p65 translocation robust z-score": -0.03, "nuclear/cytoplasmic p65 ratio, rep 1": 1.43, "nuclear/cytoplasmic p65 ratio, rep 2": 1.37, "low cell count flag": "enough cells to score"}
{"gene": "Oosp1", "p65 translocation robust z-score": 2.11, "nuclear/cytoplasmic p65 ratio, rep 1": 1.93, "nuclear/cytoplasmic p65 ratio, rep 2": 1.31, "low cell count flag": "enough cells to score"}
{"gene": "Kalrn", "nuclear/cytoplasmic p65 ratio, rep 1": 1.16, "nuclear/cytoplasmic p65 ratio, rep 2": 1.07, "low cell count flag": "fewer than 50 cells per well; well left out of scoring"}
{"gene": "Pde4c", "p65 translocation robust z-score": -1.07, "nuclear/cytoplasmic p65 ratio, rep 1": 1.31, "nuclear/cytoplasmic p65 ratio, rep 2": 1.27, "low cell count flag": "enough cells to score"}

The listing continues:
no.	gene	p65 translocation robust z-score	nuclear/cytoplasmic p65 ratio, rep 1	nuclear/cytoplasmic p65 ratio, rep 2	low cell count flag
29	Abcc5	0.78	1.79	1.67	enough cells to score
30	Ror2	0.92	1.8	1.52	enough cells to score
31	Rbmx	2.25	1.7	1.49	enough cells to score
32	Mfap1a		1.56	1.23	fewer than 50 cells per well; well left out of scoring
33	Gsx1	-1.38	1.44	1.34	enough cells to score
34	Tamalin	-0.44	1.4	1.29	enough cells to score
35	St7	-0.23	1.39	1.14	enough cells to score
36	Trim54	2.19	1.8	1.39	enough cells to score
37	Foxn2	-0.75	1.29	1.31	enough cells to score
38	Cfap298	1.14	1.58	1.72	enough cells to score
39	Or56b35		1.35	1.16	fewer than 50 cells per well; well left out of scoring
40	Or5p68		1.62	1.29	fewer than 50 cells per well; well left out of scoring
41	Pafah1b3	0.13	1.42	1.47	enough cells to score
42	Cd40lg	-0.3	1.44	1.51	enough cells to score
43	Ctsg	0.75	1.59	1.46	enough cells to score
44	Neurod4	0.25	1.89	1.57	enough cells to score
45	Slc25a32	0.88	1.78	1.74	enough cells to score
46	Cr2	0.27	1.51	1.42	enough cells to score
47	Snapin		1.13	1.05	fewer than 50 cells per well; well left out of scoring
48	Or11l3	0.31	1.67	1.45	enough cells to score
49	Acsbg1		1.35	1.1	fewer than 50 cells per well; well left out of scoring
50	Arl2bp	-0.54	1.45	1.51	enough cells to score
51	Atp5mg	0.98	1.47	1.72	enough cells to score
52	Pglyrp4	-0.26	1.38	1.23	enough cells to score
53	Actl7b	-0.22	1.53	1.64	enough cells to score
54	Lama4	0.02	1.51	1.36	enough cells to score
55	Krt23	2.51	1.97	1.72	enough cells to score
56	Klf4	0.47	1.58	1.4	enough cells to score
57	B230340J04Rik	0.15	1.67	1.49	enough cells to score
58	Bri3		1.28	1.56	fewer than 50 cells per well; well left out of scoring
59	Fbxo9	-0.07	1.5	1.32	enough cells to score
